Experiment [1] addresses HNRNPC (human (endogenous in HEK293T, HepG2, A431)) (UniProt P07910). Briefly: co-IP.
In experiment [2] the target is T1, HNRNPM (human (endogenous in HEK293T)) (UniProt P52272).
T1 sequence: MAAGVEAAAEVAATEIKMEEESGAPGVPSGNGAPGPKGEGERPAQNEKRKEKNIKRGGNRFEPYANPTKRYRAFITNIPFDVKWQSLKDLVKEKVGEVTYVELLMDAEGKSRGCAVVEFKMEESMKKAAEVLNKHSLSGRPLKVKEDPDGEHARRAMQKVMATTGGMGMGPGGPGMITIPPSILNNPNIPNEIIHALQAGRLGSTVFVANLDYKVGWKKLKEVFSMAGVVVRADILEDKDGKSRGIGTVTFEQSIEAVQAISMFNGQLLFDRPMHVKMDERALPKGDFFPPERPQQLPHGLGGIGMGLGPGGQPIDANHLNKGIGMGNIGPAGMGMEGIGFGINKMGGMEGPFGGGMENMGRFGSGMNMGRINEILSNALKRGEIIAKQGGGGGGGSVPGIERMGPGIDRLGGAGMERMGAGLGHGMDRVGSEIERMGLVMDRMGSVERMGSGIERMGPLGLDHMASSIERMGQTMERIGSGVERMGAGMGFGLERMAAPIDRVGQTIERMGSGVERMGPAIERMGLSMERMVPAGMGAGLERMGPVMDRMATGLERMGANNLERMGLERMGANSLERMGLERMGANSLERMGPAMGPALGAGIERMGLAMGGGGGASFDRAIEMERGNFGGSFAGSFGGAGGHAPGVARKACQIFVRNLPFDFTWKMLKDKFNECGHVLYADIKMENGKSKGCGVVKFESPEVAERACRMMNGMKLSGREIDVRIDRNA
The experiment in a line: co-IP.

The chains behind the UniProt entries cited, without tags or fusion partners.
UniProt P07910: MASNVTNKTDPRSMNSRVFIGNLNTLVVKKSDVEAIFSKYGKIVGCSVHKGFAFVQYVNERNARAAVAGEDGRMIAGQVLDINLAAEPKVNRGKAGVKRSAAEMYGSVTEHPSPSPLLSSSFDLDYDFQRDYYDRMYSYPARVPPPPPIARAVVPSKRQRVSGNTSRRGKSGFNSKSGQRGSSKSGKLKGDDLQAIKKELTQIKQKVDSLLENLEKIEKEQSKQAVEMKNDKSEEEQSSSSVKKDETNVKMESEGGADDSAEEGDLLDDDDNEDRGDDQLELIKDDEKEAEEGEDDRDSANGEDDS
UniProt Q12905: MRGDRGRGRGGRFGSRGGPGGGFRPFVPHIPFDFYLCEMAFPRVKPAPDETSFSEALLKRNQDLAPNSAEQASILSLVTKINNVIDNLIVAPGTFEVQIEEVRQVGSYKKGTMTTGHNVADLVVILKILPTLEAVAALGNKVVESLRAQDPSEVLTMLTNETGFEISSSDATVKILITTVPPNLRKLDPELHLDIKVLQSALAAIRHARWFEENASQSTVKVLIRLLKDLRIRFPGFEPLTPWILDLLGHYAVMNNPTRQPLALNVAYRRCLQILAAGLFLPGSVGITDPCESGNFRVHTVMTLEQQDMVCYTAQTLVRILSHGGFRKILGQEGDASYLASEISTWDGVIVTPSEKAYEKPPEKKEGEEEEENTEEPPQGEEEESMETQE

No constants are given. Whether binding was seen depends on the method and setting. Binding seen in cells or lysates may run through a third protein. Some entries that bind do so weakly or less than the wild type.

Consider ILF2 (from UniProt Q12905 1-390), for which the binding entry in experiment [1] and in experiment [2] was “binds” throughout.
